Screen size: about 24,000 compounds; about 90 (0.4%) showed an effect of 50% or more. The source calls these results inconclusive, neither active nor inactive.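 The calls were made as follows: active = inhibition above 50%; inconclusive = compound itself fluorescent, judged against control cell fluorescence; inactive = the rest.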
molecular target: Integrin alpha-4 (Homo sapiens) (UniProt P13612); assay: inhibitors of LDV-FITC binding to Mn2+-activated VLA-4, primary screen, Jurkat cells (AID 529); details: LDV-FITC binding with Mn2+, flow cytometry

Amino acid sequences for entries named in this document (tags omitted).
UniProt P13612, whole entry, looked up: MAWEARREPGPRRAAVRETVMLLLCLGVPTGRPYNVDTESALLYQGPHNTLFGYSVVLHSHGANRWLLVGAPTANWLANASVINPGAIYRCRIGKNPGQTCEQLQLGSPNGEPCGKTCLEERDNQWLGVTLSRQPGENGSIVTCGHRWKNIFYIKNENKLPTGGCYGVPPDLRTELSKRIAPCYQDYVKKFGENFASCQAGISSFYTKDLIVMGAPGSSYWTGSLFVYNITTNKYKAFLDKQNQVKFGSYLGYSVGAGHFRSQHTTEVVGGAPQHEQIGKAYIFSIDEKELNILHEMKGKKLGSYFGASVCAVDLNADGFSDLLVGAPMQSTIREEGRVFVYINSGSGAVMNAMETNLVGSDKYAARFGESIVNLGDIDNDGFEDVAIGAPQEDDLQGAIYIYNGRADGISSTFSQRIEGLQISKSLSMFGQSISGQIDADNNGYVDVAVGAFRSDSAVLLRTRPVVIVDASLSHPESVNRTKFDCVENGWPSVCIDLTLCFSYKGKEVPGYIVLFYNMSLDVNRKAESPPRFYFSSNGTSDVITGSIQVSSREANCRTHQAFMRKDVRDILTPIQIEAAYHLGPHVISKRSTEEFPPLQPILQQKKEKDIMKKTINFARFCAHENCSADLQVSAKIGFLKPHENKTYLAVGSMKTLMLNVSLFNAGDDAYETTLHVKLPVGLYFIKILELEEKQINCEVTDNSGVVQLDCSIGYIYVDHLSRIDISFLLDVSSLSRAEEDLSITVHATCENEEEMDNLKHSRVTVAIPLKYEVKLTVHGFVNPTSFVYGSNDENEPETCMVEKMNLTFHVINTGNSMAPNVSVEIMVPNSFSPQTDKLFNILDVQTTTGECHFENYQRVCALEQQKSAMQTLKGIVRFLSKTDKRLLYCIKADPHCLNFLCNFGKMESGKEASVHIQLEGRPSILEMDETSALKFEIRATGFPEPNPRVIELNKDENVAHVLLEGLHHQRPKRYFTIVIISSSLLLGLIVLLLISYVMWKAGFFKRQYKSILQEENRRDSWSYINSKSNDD

| Structure (SMILES) | outcome |
| --- | --- |
| Cc1ccc(C)c(NP(C)(=O)Oc2ccccc2)c1 (stereo unspecified) | inconclusive |
